# Laboratory results as given in PubChem BioAssay AID493014 (National Center for Advancing Translational Sciences (NCATS), 2011).
# This is one part of the list. Shown are side measurements of this screen, not its main read-out; they come without a call. Compounds called inactive in the main read-out are mostly missing here. Potencies come from curve fits of mixed quality, noted in brackets.
# Assay: qHTS Assay to Find Inhibitors of Chronic Active B-Cell Receptor Signaling
# Conditions: ABC-DLBCL IkBa-CBG/CBR reporter, luminescence ratio (green luciferase fused to IkBa over red control in TMD8 lymphoma cells), 4 h
# Procedure, shortened: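 Cell line TMD8 (human ABC DLBCL), stably expressing tet-inducible CBG68-IkBa fusion and CBR; IMDM/0.5% FBS; cpd up to 46 uM; dox induction, 4 h, 37C/5% CO2; dual luminescence; green/red ratio; MG132 control.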
# [1] = measured here: CBR red luminescence, cell number
# [2] = measured here: IkBa-CBG green luminescence
Structure (SMILES),AC50 [1],AC50 [2]
CSc1ccc(/C=N/NC(=O)c2cc(O)cc(O)c2)cc1,"8.2 µM [falling, partial curve]",
Cc1cc(OCC(O)CN2C(C)CCCC2C)ccc1C(C)C (centres undefined),"35.5 µM [falling, single point]",
Cc1cccc(OCC(=O)Nc2ccc3c(c2)OCCO3)c1,"0.00411 µM [rising, full curve, poor fit]",
N=C(N)SCc1ccc(Cl)cc1Cl,"23.1 µM [falling, single point]",
CNc1c(NC(=O)c2ccc3c(c2)OCO3)c(=O)oc2ccccc12,"12.6 µM [falling, partial curve]",
COc1ccc(/C=C(\C#N)C(=O)NCc2ccccc2)cc1O,"20 µM [falling, partial curve, poor fit]",
Brc1ccc(NC(c2ccccc2)c2ccncc2)cc1 (centres undefined),"35.5 µM [rising, single point]",
COCCCNC(=O)C1CCN(Cc2cc3ccccc3n2Cc2cccc(Cl)c2)CC1,"14.1 µM [falling, single point]",
Cc1cccc(OCC2=NS(=O)(=O)c3ccccc3N2)c1,"35.5 µM [falling, single point]",
CCOC(=O)c1nc(NCc2ccccc2)sc1C,"35.5 µM [falling, single point]",
Cc1ccc(S(=O)(=O)Nc2ccc(Br)cc2/C=N/n2cnnc2)cc1,"4.47 µM [rising, partial curve, poor fit]",
Nc1nc(N2CCN(c3ccccn3)CC2)nc2ccccc12,"0.355 µM [rising, full curve]",
COc1cccc(C(=O)NNC(=O)c2cccc(F)c2)c1,"10 µM [falling, partial curve]",
CC(=O)Nc1cccc(OCCCOc2ccc([N+](=O)[O-])cc2)c1,"12.6 µM [rising, partial curve, poor fit]",
COc1ccccc1CNCC(c1ccccc1)c1ccccc1,"31.6 µM [falling, single point]",
Clc1cccc(Cl)c1-c1noc(-c2ccno2)n1,"11.2 µM [rising, single point]",
CCOC(=O)c1cccc(NC(=O)c2ccc(N(C)C)cc2)c1,"4.61 µM [falling, full curve]",
O=C(Cn1c2c(c(-c3ccccc3Cl)cc1=O)CCC2)NCC1CCCO1 (centres undefined),"4.47 µM [rising, single point]",
COC(=O)c1c(NC(=O)CSc2nc3ccccc3c(=O)n2Cc2ccco2)sc(C)c1C,"4.11 µM [falling, full curve, poor fit]",
COc1ccc(-c2[nH]ncc2CN(CCO)Cc2cccs2)c(F)c1,"6.31 µM [falling, single point]","5.01 µM [rising, partial curve, poor fit]"
COc1ccc(NC2=CC(=O)CC(c3ccccc3)C2)cc1 (centres undefined),"0.282 µM [rising, full curve, poor fit]",

Structure (SMILES),AC50 [1],AC50 [2]
O=C(N/N=C/c1ccoc1)c1cc(O)cc(O)c1,"10 µM [falling, partial curve, poor fit]",
COc1ccccc1-c1sc2cc3c(cc2c1-c1ccc(OCCN2CCOCC2)cc1)OCO3,,"16.4 µM [falling, partial curve, poor fit]"
CSCCC(NC(=O)c1ccc(Cl)cc1)C(=O)NC(C)(C)C (centres undefined),"29.1 µM [falling, single point]",
COc1ccc(Nc2cc(C(=O)NCc3ccccn3)c3ccccc3n2)c(OC)c1,"6.31 µM [falling, full curve]",
Cn1c(=O)[nH]c(Nc2ccc(F)cc2)c([N+](=O)[O-])c1=O,"29.1 µM [falling, single point]",
CSCC[C@H](N)C(=O)NC[C@H]1O[C@@H](n2cnc3c(N)ncnc32)[C@H](O)[C@@H]1O,"13 µM [rising, partial curve, poor fit]",
CC(=O)c1cccc(NC(=O)c2ccc(N(Cc3ccc(C)cc3)S(C)(=O)=O)cc2)c1,"8.2 µM [falling, partial curve, poor fit]",
O=c1c2c(nc3cc(-c4ccc(F)cc4)[nH]n13)CCCC2,"10 µM [falling, partial curve, poor fit]",
COc1ccc2c(c1)c1ccccc1n2C,"29.1 µM [rising, single point]",
CNC[C@@H](C)NC[C@@H](Cc1ccccc1)NCCc1ccccc1,"35.5 µM [falling, single point]",
CCOC(=O)c1ccc2nc(Nc3nc4ccc(F)cc4s3)sc2c1,"0.0517 µM [falling, full curve]",
CCCc1cc(=O)[nH]c(SCc2csc(-c3ccccc3)n2)n1,"29.1 µM [falling, single point]",
O=C(CCCN1C(=O)/C(=C\c2ccccc2)SC1=S)Nc1ccccc1O,"3.55 µM [falling, partial curve, poor fit]",
COc1ccccc1C(=O)NCCC(=O)NC1CCC(C)CC1 (centres undefined),"29.1 µM [falling, single point]",
Cc1ccccc1C(=O)NNC(=O)c1cc(N)cc([N+](=O)[O-])c1,"14.6 µM [falling, single point]",
CCOC(=O)c1cc(OC(=O)c2cccc([N+](=O)[O-])c2)n(-c2ccccc2)n1,"0.82 µM [falling, full curve, poor fit]",
CC(Cc1ccc(Cl)cc1)N1CCC(n2nccc2NC(=O)C2CCCC2)CC1 (centres undefined),"11.2 µM [falling, partial curve]",
Clc1ccc(/C=N/Nc2nc(Cl)nc3ccccc23)cc1,"0.501 µM [falling, full curve, poor fit]",
O=C(Nc1cnn(Cc2ccccc2)c1)c1nc2ncccn2n1,"35.5 µM [falling, single point]",
CCOC(=O)CN(C(=O)COC(=O)C1(c2ccccc2)CC1)c1ccc(F)cc1,"1.3 µM [falling, full curve]",
O=C(Cc1ccc(-n2c(=O)c3ccccc3n(Cc3ccccc3F)c2=O)cc1)NCC1CCCO1 (centres undefined),"10.3 µM [rising, partial curve, poor fit]","5.8 µM [falling, partial curve]"

# Pulled one by one from the entries so far, three records:
Structure (SMILES),AC50 [1],AC50 [2]
CCOC(=O)c1cc(OC(=O)c2cccc([N+](=O)[O-])c2)n(-c2ccccc2)n1,"0.82 µM [falling, full curve, poor fit]",
CC(Cc1ccc(Cl)cc1)N1CCC(n2nccc2NC(=O)C2CCCC2)CC1 (centres undefined),"11.2 µM [falling, partial curve]",
COc1ccc(Nc2cc(C(=O)NCc3ccccn3)c3ccccc3n2)c(OC)c1,"6.31 µM [falling, full curve]",
